Each structure is given as a SMILES string. The list shows only some results of the screen, not a fair sample: it is rich in T/C values a quarter to a half above the control, in often repeated tests (any T/C) and in doses without a T/C. Other doses and runs of a compound stand elsewhere. T/C is the treated group as % of the vehicle group. Some doses have a count of surviving animals in place of a T/C: the source files T/C as zero there, which appears to mark a toxic dose or a test without result, not a measured value. Some doses without a T/C left all or most animals alive at the check, yet need not have been tolerated: the source hardly ever lists a survival T/C far under the control, and the zero likely stands for such cases as well. Survivors were counted at the toxicity check, usually on the fifth day, unless a day is given; later deaths do not show. Schedules are NCI's codes, taken here to give the interval after Q, in days (D) or hours (H), and the number of doses after X. Some entries hold several experiments; their values stand side by side, smallest first. Where survival is the endpoint, the PubChem record calls one and a half times the control and up active, and a quarter to a half above the control has no call in these data; cut-offs in other NCI protocols can differ.

The test relates to P388 leukemia ip, CD2F1 mice, survival T/C. The experiment in a line: NCI In Vivo Anticancer Drug Screen. Data for tumor model P388 Leukemia (intraperitoneal) in CD2F1 (CDF1) mice. The conditions noted are these: T/C endpoint: median survival time, higher T/C = longer survival.
The mark [1] stands for this setting: dose: 25.0 mg/kg/injection, schedule: Q01DX009 (ip), vehicle: distilled water + Tween-80.
[2] abbreviates: dose: 50.0 mg/kg/injection, schedule: Q01DX009 (ip), vehicle: distilled water + Tween-80.
The mark [3] stands for this setting: dose: 50.0 mg/kg/injection, schedule: Q01DX005 (ip), vehicle: saline with Tween-80.
Setting [4] is: dose: 100.0 mg/kg/injection, schedule: Q01DX005 (ip), vehicle: saline with Tween-80.
Where [5] appears, read: dose: 200.0 mg/kg/injection, schedule: Q01DX005 (ip), vehicle: saline with Tween-80.
Where [6] appears, read: dose: 200.0 mg/kg/injection, schedule: Q01DX009 (ip), vehicle: Klucel (hydroxypropylcellulose) (HPC).
Setting [7] is: dose: 400.0 mg/kg/injection, schedule: Q01DX009 (ip), vehicle: saline with Tween-80.
The mark [8] stands for this setting: dose: 200.0 mg/kg/injection, schedule: Q01DX005 (ip), vehicle: Klucel (hydroxypropylcellulose) (HPC).
[9] abbreviates: dose: 50.0 mg/kg/injection, schedule: Q01DX009 (ip), vehicle: Klucel (hydroxypropylcellulose) (HPC).
Setting [10] is: dose: 100.0 mg/kg/injection, schedule: Q01DX009 (ip), vehicle: Klucel (hydroxypropylcellulose) (HPC).
Where [11] appears, read: dose: 50.0 mg/kg/injection, schedule: Q01DX009 (ip), vehicle: saline + alcohol.

On to `COc1ccc2c(NCCCCCCNc3c4ccccc4nc4cc(OC)ccc34)c3ccccc3nc2c1`, for which the T/C runs as follows: (dose: 1.25 mg/kg/injection, schedule: Q01DX009 (ip), vehicle: other) 144 % of control; (dose: 2.5 mg/kg/injection, schedule: Q01DX009 (ip), vehicle: other) 146 % of control; (dose: 3.75 mg/kg/injection, schedule: Q01DX009 (ip), vehicle: other) 147 % of control; (dose: 7.5 mg/kg/injection, schedule: Q01DX009 (ip), vehicle: other) 149 % of control. In addition, the survivor count (dose: 15.0 mg/kg/injection, schedule: Q01DX009 (ip), vehicle: other) is listed as 4 of 6 and the survivor count (dose: 20.0 mg/kg/injection, schedule: Q01DX009 (ip), vehicle: other) is given as 0 of 6.
Regarding `NC1[N-]C(C2CCCC[N-]2)CC2CCCCC21.O=[N+]([O-])O.O=[N+]([O-])O.[Cu+2]` (stereo unspecified), the survivor count (dose: 25.0 mg/kg/injection, schedule: Q04DX002 (ip), vehicle: suspension in saline) is 1 of 6; the survivor count (dose: 100.0 mg/kg/injection, schedule: Q04DX002 (ip), vehicle: suspension in saline) is given as 0 of 6; the survivor count (dose: 200.0 mg/kg/injection, schedule: Q04DX002 (ip), vehicle: suspension in saline) was 0 of 6; the survivor count (dose: 400.0 mg/kg/injection, schedule: Q04DX002 (ip), vehicle: suspension in saline) is 0 of 6.
With `CC(=O)c1ccc(NN=NCCF)cc1`, where the note is “dose: 3.13 mg/kg/injection, schedule: Q01DX009 (ip), vehicle: water”, the T/C was 125 % of control. The survivor count is, setting by setting: (dose: 12.5 mg/kg/injection, schedule: Q01DX009 (ip), vehicle: water) 0 of 6; under setting [1], 0 of 5; (dose: 25.0 mg/kg/injection, schedule: Q01DX009 (ip), vehicle: water) 0 of 6; under setting [2], 0 of 5; (dose: 100.0 mg/kg/injection, schedule: Q01DX009 (ip), vehicle: distilled water + Tween-80) 0 of 5; (dose: 200.0 mg/kg/injection, schedule: Q01DX009 (ip), vehicle: distilled water + Tween-80) 0 of 5.
As to `COc1cccc(C=Nc2cc(C)ccn2)c1O.COc1cccc(C=Nc2cc(C)ccn2)c1O.[Cu]`, the survivor count was 1 of 6 under setting [3], 0 of 6 under setting [4] and 0 of 6 under setting [5].
Turning to `O=C(O)C(Cc1ccccc1)N1C(=O)C=CC1=O` (stereo unspecified), the survivor count by setting is: (dose: 80.0 mg/kg/injection, schedule: Q01DX009 (ip), vehicle: saline with Tween-80) 2 of 6; (dose: 160.0 mg/kg/injection, schedule: Q01DX009 (ip), vehicle: saline with Tween-80) 0 of 6; under setting [6], 0 of 6.
In the case of `CCCCCCC(=O)NC1=C(N2CC2)C(=O)C(NC(=O)CCCCCC)=C(N2CC2)C1=O`, the T/C was 131 % of control (dose: 50.0 mg/kg/injection, schedule: Q04DX003 (ip), vehicle: saline with Tween-80) and 145 % of control (dose: 66.0 mg/kg/injection, schedule: Q04DX003 (ip), vehicle: saline with Tween-80). Moreover, the survivor count under setting [7] is recorded as 6 of 6.
Regarding `C[N+](C)(C)CCc1ccc2ccccc2c1`, the survivor count is, setting by setting: (dose: 200.0 mg/kg/injection, schedule: Q04DX002 (ip), vehicle: saline + alcohol) 1 of 6; (dose: 400.0 mg/kg/injection, schedule: Q04DX002 (ip), vehicle: saline + alcohol) 0 of 6.
Consider `CC1(C(=O)O)CCC2(C)CCC3(C)C(=CC(=O)C4C5(C)CCC(O)C(C)(C)C5CCC43C)C2C1` (stereo unspecified), for which the survivor count (dose: 400.0 mg/kg/injection, schedule: Q04DX003 (ip), vehicle: Klucel (hydroxypropylcellulose) (HPC)) is on record as 0 of 6.
For `COc1ccc2cc3[n+](cc2c1O)CCc1cc2c(cc1-3)OCO2`, the T/C (dose: 50.0 mg/kg/injection, schedule: Q01DX005 (ip), vehicle: Klucel (hydroxypropylcellulose) (HPC)) is 134 and 140 % of control. Besides, the survivor count under setting [8] is 0 of 6 and 4 of 6.
On to `Cc1ncc(N)c(C(=O)O)n1`, for which the survivor count under setting [8] is recorded as 5 of 5.
For `Cc1ccc(C(=O)CCN(C)C)c(C)c1`, the survivor count is, setting by setting: (dose: 120.0 mg/kg/injection, schedule: Q01DX005 (ip), vehicle: saline) 0 of 6; (dose: 240.0 mg/kg/injection, schedule: Q01DX005 (ip), vehicle: saline) 0 of 6.
Consider `O=C(O)c1cc2ccccc2o1`, for which the survivor count under setting [7] was 1 of 3.
As to `c1ccc2c(c1)c1c(c3ccccc32)CNCC1`, the survivor count by setting is: (dose: 25.0 mg/kg/injection, schedule: Q01DX005 (ip), vehicle: saline with Tween-80) 5 of 5; under setting [3], 4 of 5; under setting [4], 1 of 6; under setting [5], 0 of 6.
In the case of `O=[N+]([O-])c1ccc(-c2nc3ncncc3[nH]2)cc1`, the survivor count is given as 1 of 6 (dose: 25.0 mg/kg/injection, schedule: Q01DX009 (ip), vehicle: Klucel (hydroxypropylcellulose) (HPC)); 1 of 6 under setting [9]; 1 of 6 under setting [10]; 0 of 6 under setting [6].
In the case of `CC(C)C1=C2C3CC(O)C(C=O)=CC(=O)C3(C)CCC2(C)CC1` (stereo unspecified), under setting [11], the survivor count is 3 of 6.
Consider `CC(C)(C)c1cc2c(=O)o[s+]3oc(=O)c(c1)c23`, for which the survivor count reads like this: under setting [9], 1 of 6; under setting [10], 0 of 6; under setting [6], 0 of 6.
For the compound `CNC(=O)OCc1c(C)sc(-c2ccccc2)c1COC(=O)NC`, under “dose: 200.0 mg/kg/injection, schedule: Q01DX005 (ip), vehicle: distilled water + Tween-80”, the survivor count was 3 of 5.
For `O=C1NC2C(=CC(O)C(O)C2O)c2cc3c(cc21)OCO3` (stereo unspecified), for the setting “dose: 25.0 mg/kg/injection, schedule: Q01DX009 (ip), vehicle: saline + alcohol”, the T/C was 128 % of control. Also, the survivor count reads like this: under setting [11], 2 of 4 and 5 of 6; (dose: 100.0 mg/kg/injection, schedule: Q01DX009 (ip), vehicle: saline + alcohol) 0 of 4.
Regarding `CCO/C=N/NS(=O)(=O)c1ccc(C)cc1`, the T/C reads like this: under setting [1], 127 % of control; under setting [2], 131 % of control. Also, the survivor count runs as follows: (dose: 25.0 mg/kg/injection, schedule: Q01DX009 (ip), vehicle: other) 6 of 6; (dose: 400.0 mg/kg/injection, schedule: Q01DX009 (ip), vehicle: other) 6 of 6.
Consider `O=C1C2=C(Nc3ccccc3N2)OC1c1ccc(Cl)cc1` (stereo unspecified), for which the survivor count was 6 of 6 (dose: 60.0 mg/kg/injection, schedule: Q01DX005 (ip), vehicle: Klucel (hydroxypropylcellulose) (HPC)); 5 of 6 (dose: 120.0 mg/kg/injection, schedule: Q01DX005 (ip), vehicle: Klucel (hydroxypropylcellulose) (HPC)); 5 of 6 (dose: 240.0 mg/kg/injection, schedule: Q01DX005 (ip), vehicle: Klucel (hydroxypropylcellulose) (HPC)).
Consider `CCC(=O)n1nc(Nc2ccccc2)c(C(=O)OC)c1C`, for which the survivor count by setting is: under setting [3], 6 of 6; under setting [4], 6 of 6.
For the compound `CCC[As](CCC)SC1OC(COC(C)=O)C(OC(C)=O)C(OC(C)=O)C1OC(C)=O` (stereo unspecified), the survivor count under setting [7] is listed as 0 of 6.
Turning to `COc1cccc2c1C(=O)c1c(O)c3c(c(O)c1C2=O)CC(O)(C(O)CO)CC3OC1CC(N2CCSCC2)C(O)C(C)O1` (stereo unspecified), the T/C (dose: 25.0 mg/kg/injection, schedule: Q04DX003 (ip), vehicle: saline) is 131 % of control and the T/C (dose: 50.0 mg/kg/injection, schedule: Q04DX003 (ip), vehicle: saline) was 131 % of control.
Turning to `O=C(O)c1ccc(S(=O)(=O)OCCCl)cc1`, the survivor count by setting is: under setting [9], 6 of 6; under setting [10], 5 of 6; under setting [6], 0 of 6.

The values are drawn from PubChem BioAssay AID330 (DTP/NCI, 2004).
